PubChem BioAssay AID186 (DTP/NCI, 2004)
Values are animals surviving of animals treated; these mice carried no tumour. Survivors were counted at the toxicity check, usually on the fifth day, unless a day is given; later deaths do not show. Schedules are NCI's codes, read here as Q, the interval in days (D) or hours (H), X, the number of doses. Some doses were run more than once; the values are given in rising order.

System: B6D2F1 mice, nontumored toxicity test, survival
Test: NCI In Vivo Anticancer Drug Screen. Data for tumor model Nontumored Animals (Toxicity Test) in B6D2F1 (BDF1) mice

SMILES: CNc1nc(N(C)C)nc(N(C)C)n1
- survivor count (dose: 3.75 mg/kg/injection, schedule: Q03HX008 (ip), vehicle: water): 10 of 10
- survivor count (dose: 3.75 mg/kg/injection, schedule: Q08DX024 (ip), vehicle: water): 10 of 10
- survivor count (dose: 6.25 mg/kg/injection, schedule: Q04DX005 (iv), vehicle: water): 10 of 10
- survivor count (dose: 7.5 mg/kg/injection, schedule: Q01DX009 (ip), vehicle: water): 10 of 10
- survivor count (dose: 7.5 mg/kg/injection, schedule: Q01DX017 (ip), vehicle: water): 10 of 10
- survivor count (dose: 7.5 mg/kg/injection, schedule: Q01DX017 (sc), vehicle: water): 10 of 10
- survivor count (dose: 7.5 mg/kg/injection, schedule: Q03HX008 (ip), vehicle: water): 10 of 10
- survivor count (dose: 7.5 mg/kg/injection, schedule: Q08DX024 (ip), vehicle: water): 10 of 10
- survivor count (dose: 12.5 mg/kg/injection, schedule: Q04DX005 (ip), vehicle: water): 10 of 10
- survivor count (dose: 12.5 mg/kg/injection, schedule: Q04DX005 (iv), vehicle: water): 10 of 10
- survivor count (dose: 13.0 mg/kg/injection, schedule: Q01DX009 (ip), vehicle: water): 10 of 10
- survivor count (dose: 15.0 mg/kg/injection, schedule: Q01DX009 (ip), vehicle: water): 10 of 10
- survivor count (dose: 15.0 mg/kg/injection, schedule: Q01DX017 (ip), vehicle: water): 10 of 10
- survivor count (dose: 15.0 mg/kg/injection, schedule: Q01DX017 (oral), vehicle: water): 10 of 10
- survivor count (dose: 15.0 mg/kg/injection, schedule: Q01DX017 (sc), vehicle: water): 10 of 10
- survivor count (dose: 15.0 mg/kg/injection, schedule: Q03HX008 (ip), vehicle: water): 10 of 10
- survivor count (dose: 15.0 mg/kg/injection, schedule: Q08DX024 (ip), vehicle: water): 10 of 10
- survivor count (dose: 20.0 mg/kg/injection, schedule: Q01DX009 (ip), vehicle: water): 10 of 10
- survivor count (dose: 20.0 mg/kg/injection, schedule: Q04DX003 (ip), vehicle: water): 10 of 10
- survivor count (dose: 25.0 mg/kg/injection, schedule: Q01DX001 (ip), vehicle: water): 10 of 10
- survivor count (dose: 25.0 mg/kg/injection, schedule: Q01DX001 (oral), vehicle: water): 10 of 10
- survivor count (dose: 25.0 mg/kg/injection, schedule: Q04DX005 (ip), vehicle: water): 10 of 10
- survivor count (dose: 25.0 mg/kg/injection, schedule: Q04DX005 (iv), vehicle: water): 10 of 10
- survivor count (dose: 25.0 mg/kg/injection, schedule: Q08DX003 (ip), vehicle: water): 10 of 10
- survivor count (dose: 30.0 mg/kg/injection, schedule: Q01DX009 (ip), vehicle: water): 9 of 10 and 10 of 10
- survivor count (dose: 30.0 mg/kg/injection, schedule: Q01DX017 (ip), vehicle: water): 10 of 10
- survivor count (dose: 30.0 mg/kg/injection, schedule: Q01DX017 (oral), vehicle: water): 10 of 10
- survivor count (dose: 30.0 mg/kg/injection, schedule: Q01DX017 (sc), vehicle: water): 10 of 10
- survivor count (dose: 30.0 mg/kg/injection, schedule: Q03HX008 (ip), vehicle: water): 10 of 10
- survivor count (dose: 30.0 mg/kg/injection, schedule: Q04DX003 (ip), vehicle: water): 10 of 10
- survivor count (dose: 30.0 mg/kg/injection, schedule: Q08DX024 (ip), vehicle: water): 10 of 10
- survivor count (dose: 44.0 mg/kg/injection, schedule: Q01DX009 (ip), vehicle: water): 10 of 10
- survivor count (dose: 44.0 mg/kg/injection, schedule: Q04DX003 (ip), vehicle: water): 10 of 10
- survivor count (dose: 50.0 mg/kg/injection, schedule: Q01DX001 (ip), vehicle: water): 10 of 10
- survivor count (dose: 50.0 mg/kg/injection, schedule: Q01DX001 (oral), vehicle: water): 10 of 10
- survivor count (dose: 50.0 mg/kg/injection, schedule: Q04DX005 (ip), vehicle: water): 9 of 10
- survivor count (dose: 50.0 mg/kg/injection, schedule: Q04DX005 (iv), vehicle: water): 10 of 10
- survivor count (dose: 50.0 mg/kg/injection, schedule: Q08DX003 (ip), vehicle: water): 10 of 10
- survivor count (dose: 60.0 mg/kg/injection, schedule: Q01DX009 (ip), vehicle: water): 10 of 10
- survivor count (dose: 60.0 mg/kg/injection, schedule: Q01DX017 (ip), vehicle: water): 10 of 10
- survivor count (dose: 60.0 mg/kg/injection, schedule: Q01DX017 (oral), vehicle: water): 10 of 10
- survivor count (dose: 60.0 mg/kg/injection, schedule: Q01DX017 (sc), vehicle: water): 10 of 10
- survivor count (dose: 60.0 mg/kg/injection, schedule: Q03HX008 (ip), vehicle: water): 10 of 10
- survivor count (dose: 60.0 mg/kg/injection, schedule: Q08DX024 (ip), vehicle: water): 10 of 10
- survivor count (dose: 67.0 mg/kg/injection, schedule: Q01DX009 (ip), vehicle: water): 10 of 10
- survivor count (dose: 67.0 mg/kg/injection, schedule: Q04DX003 (ip), vehicle: water): 10 of 10
- survivor count (dose: 100.0 mg/kg/injection, schedule: Q01DX001 (ip), vehicle: water): 10 of 10
- survivor count (dose: 100.0 mg/kg/injection, schedule: Q01DX001 (oral), vehicle: water): 10 of 10
- survivor count (dose: 100.0 mg/kg/injection, schedule: Q01DX009 (ip), vehicle: water): 10 of 10
- survivor count (dose: 100.0 mg/kg/injection, schedule: Q04DX003 (ip), vehicle: water): 10 of 10
- survivor count (dose: 100.0 mg/kg/injection, schedule: Q04DX005 (ip), vehicle: water): 10 of 10
- survivor count (dose: 100.0 mg/kg/injection, schedule: Q04DX005 (iv), vehicle: water): 10 of 10
- survivor count (dose: 100.0 mg/kg/injection, schedule: Q08DX003 (ip), vehicle: water): 10 of 10
- survivor count (dose: 120.0 mg/kg/injection, schedule: Q01DX009 (ip), vehicle: water): 10 of 10
- survivor count (dose: 120.0 mg/kg/injection, schedule: Q01DX017 (ip), vehicle: water): 10 of 10
- survivor count (dose: 120.0 mg/kg/injection, schedule: Q01DX017 (oral), vehicle: water): 10 of 10
- survivor count (dose: 120.0 mg/kg/injection, schedule: Q01DX017 (sc), vehicle: water): 10 of 10
- survivor count (dose: 150.0 mg/kg/injection, schedule: Q04DX003 (ip), vehicle: water): 10 of 10
- survivor count (dose: 200.0 mg/kg/injection, schedule: Q01DX001 (ip), vehicle: water): 10 of 10
- survivor count (dose: 200.0 mg/kg/injection, schedule: Q01DX001 (oral), vehicle: water): 10 of 10
- survivor count (dose: 200.0 mg/kg/injection, schedule: Q04DX005 (ip), vehicle: water): 10 of 10
- survivor count (dose: 200.0 mg/kg/injection, schedule: Q08DX003 (ip), vehicle: water): 9 of 10
- survivor count (dose: 240.0 mg/kg/injection, schedule: Q01DX017 (oral), vehicle: water): 10 of 10
- survivor count (dose: 400.0 mg/kg/injection, schedule: Q01DX001 (ip), vehicle: water): 2 of 10
- survivor count (dose: 400.0 mg/kg/injection, schedule: Q01DX001 (oral), vehicle: water): 10 of 10
- survivor count (dose: 400.0 mg/kg/injection, schedule: Q08DX003 (ip), vehicle: water): 2 of 10

SMILES: COc1ccc(CC(=O)NN)cc1OC
- survivor count (dose: 80.0 mg/kg/injection, schedule: Q04DX002 (ip), vehicle: saline with Tween-80): 10 of 10
- survivor count (dose: 100.0 mg/kg/injection, schedule: Q04DX002 (ip), vehicle: saline with Tween-80): 10 of 10
- survivor count (dose: 128.0 mg/kg/injection, schedule: Q04DX002 (ip), vehicle: saline with Tween-80): 10 of 10
- survivor count (dose: 150.0 mg/kg/injection, schedule: Q04DX002 (ip), vehicle: saline with Tween-80): 10 of 10
